Assay [1] has as its target endogenous eIF3B of mouse brain (mouse (endogenous in mouse brain)) (UniProt Q8JZQ9). Nature of the assay: co-IP; adult mouse whole brain lysate in RIPA buffer; IP of endogenous proteins with anti-eIF3H or anti-eIF3B antibodies, blot with anti-CB or anti-gephyrin antibodies.
Assay [2] addresses endogenous eIF3H of mouse brain (mouse (endogenous in mouse brain)) (UniProt Q91WK2). Described as above.
Assay [3] addresses T1, Flag-gephyrin (N-terminally Flag-tagged full-length human gephyrin) (human) (UniProt Q9NQX3).
T1 sequence: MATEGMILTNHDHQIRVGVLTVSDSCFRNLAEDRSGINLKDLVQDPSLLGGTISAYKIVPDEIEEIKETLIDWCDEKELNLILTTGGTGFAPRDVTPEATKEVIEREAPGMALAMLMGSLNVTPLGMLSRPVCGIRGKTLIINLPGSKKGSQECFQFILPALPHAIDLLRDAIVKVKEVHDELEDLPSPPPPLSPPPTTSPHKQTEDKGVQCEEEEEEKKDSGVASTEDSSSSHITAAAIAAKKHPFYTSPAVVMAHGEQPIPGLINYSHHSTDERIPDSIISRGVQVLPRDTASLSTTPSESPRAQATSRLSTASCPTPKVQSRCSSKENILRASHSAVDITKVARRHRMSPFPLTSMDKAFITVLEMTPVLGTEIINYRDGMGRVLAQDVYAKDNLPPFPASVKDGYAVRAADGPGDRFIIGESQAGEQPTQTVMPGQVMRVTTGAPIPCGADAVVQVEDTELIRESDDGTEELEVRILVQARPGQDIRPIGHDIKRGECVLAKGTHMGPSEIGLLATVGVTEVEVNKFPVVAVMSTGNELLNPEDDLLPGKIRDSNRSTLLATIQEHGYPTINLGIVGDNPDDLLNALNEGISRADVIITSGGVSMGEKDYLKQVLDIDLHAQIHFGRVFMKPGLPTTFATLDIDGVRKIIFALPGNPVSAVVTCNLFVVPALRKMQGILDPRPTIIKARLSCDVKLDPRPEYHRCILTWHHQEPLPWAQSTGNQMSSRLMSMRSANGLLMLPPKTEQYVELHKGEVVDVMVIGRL
Nature of the assay: co-IP; HEK 293T cells cotransfected with Flag- and Myc-tagged proteins; lysis and washes in RIPA buffer; IP with anti-Flag antibody, blot with anti-Myc antibody.

The chains behind the UniProt entries cited, without tags or fusion partners.
UniProt Q8JZQ9: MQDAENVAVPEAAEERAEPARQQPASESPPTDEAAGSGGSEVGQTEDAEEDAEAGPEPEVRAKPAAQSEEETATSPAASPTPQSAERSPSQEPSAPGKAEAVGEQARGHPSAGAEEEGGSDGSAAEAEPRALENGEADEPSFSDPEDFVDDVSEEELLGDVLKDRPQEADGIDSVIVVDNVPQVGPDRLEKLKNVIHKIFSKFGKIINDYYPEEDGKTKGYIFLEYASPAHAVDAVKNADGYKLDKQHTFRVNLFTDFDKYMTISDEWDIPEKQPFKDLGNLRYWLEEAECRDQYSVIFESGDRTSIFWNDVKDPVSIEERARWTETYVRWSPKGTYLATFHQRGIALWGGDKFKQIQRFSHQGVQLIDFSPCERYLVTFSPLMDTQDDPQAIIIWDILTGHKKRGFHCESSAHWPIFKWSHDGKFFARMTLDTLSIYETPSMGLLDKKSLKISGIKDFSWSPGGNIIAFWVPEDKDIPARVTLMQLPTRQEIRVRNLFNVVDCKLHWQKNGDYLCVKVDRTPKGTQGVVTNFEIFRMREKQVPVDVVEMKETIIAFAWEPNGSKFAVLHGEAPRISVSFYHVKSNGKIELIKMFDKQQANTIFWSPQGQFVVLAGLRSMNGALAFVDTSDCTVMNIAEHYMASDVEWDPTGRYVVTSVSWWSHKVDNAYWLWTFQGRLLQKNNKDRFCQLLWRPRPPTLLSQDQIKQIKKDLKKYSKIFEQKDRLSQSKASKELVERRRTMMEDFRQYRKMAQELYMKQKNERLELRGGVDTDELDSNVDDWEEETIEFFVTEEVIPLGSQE
UniProt Q91WK2: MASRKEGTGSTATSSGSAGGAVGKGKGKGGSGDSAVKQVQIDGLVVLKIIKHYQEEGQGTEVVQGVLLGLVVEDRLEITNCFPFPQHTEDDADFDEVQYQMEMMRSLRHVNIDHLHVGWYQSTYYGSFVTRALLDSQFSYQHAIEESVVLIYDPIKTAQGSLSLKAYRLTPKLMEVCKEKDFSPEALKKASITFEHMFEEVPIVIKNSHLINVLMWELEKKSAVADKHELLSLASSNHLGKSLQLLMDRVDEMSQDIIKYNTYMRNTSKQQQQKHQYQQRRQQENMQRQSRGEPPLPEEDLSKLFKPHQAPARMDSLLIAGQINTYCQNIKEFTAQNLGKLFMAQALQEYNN

The target of assay [4] is T2, GAL4BD-CB (full-length human collybistin fused to the GAL4 DNA-binding domain) (human) (UniProt O43307).
T2 sequence: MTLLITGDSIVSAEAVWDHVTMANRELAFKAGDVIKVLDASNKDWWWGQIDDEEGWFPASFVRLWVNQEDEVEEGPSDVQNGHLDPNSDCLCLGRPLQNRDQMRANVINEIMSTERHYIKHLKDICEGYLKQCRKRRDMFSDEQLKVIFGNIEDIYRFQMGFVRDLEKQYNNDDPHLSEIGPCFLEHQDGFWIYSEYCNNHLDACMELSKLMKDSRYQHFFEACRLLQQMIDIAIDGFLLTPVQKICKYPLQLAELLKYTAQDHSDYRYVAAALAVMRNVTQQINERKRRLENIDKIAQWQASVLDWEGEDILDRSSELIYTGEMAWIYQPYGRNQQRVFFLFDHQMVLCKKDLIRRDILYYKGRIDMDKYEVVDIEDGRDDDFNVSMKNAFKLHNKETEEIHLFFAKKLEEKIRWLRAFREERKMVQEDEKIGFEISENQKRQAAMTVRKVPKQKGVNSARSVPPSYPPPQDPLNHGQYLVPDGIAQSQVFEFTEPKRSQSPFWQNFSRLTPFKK
Nature of the assay: two-hybrid; Matchmaker GAL4 system 3; GAL4BD baits in pGBKT7, GAL4AD preys; yeast AH109; growth on SD/-Leu/-Trp/-Ade/-His/X-alpha-Gal/5 mM 3-AT, 30°C; library screen and retest by cotransformation.

Assay [5] concerns the target T3, GAL4BD-CB_(SH3-) (human collybistin lacking the N-terminal SH3 domain fused to the GAL4 DNA-binding domain) (human) (UniProt O43307).
T3 sequence: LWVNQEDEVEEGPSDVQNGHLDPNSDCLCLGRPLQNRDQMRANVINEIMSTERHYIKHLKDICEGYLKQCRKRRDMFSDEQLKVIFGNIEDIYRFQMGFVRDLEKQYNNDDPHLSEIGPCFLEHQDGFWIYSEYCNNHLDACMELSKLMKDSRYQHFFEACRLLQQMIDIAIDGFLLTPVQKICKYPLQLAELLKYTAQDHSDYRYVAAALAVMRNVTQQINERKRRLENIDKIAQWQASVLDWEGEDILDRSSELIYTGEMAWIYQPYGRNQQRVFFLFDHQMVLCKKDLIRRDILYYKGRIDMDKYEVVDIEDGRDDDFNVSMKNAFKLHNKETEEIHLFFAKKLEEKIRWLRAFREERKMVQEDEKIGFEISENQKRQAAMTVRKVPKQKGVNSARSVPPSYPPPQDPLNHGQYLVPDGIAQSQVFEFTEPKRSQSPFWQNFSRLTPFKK
The assay is described as above.

The target in assay [6] is T4, Flag-CB (N-terminally Flag-tagged full-length human collybistin) (human) (UniProt O43307).
T4 sequence: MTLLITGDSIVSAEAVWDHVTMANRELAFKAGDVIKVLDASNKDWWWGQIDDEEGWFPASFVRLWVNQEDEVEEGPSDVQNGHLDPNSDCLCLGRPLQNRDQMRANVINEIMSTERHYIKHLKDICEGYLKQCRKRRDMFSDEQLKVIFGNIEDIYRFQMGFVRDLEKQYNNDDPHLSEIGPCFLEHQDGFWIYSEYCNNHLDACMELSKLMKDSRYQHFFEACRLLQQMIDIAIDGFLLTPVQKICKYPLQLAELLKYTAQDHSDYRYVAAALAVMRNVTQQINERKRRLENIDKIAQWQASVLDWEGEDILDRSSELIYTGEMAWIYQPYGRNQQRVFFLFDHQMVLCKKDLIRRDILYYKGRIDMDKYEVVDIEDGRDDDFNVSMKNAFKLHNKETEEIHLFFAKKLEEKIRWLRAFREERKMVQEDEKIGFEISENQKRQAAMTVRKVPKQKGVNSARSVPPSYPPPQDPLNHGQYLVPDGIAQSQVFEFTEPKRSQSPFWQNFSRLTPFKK
Nature of the assay: co-IP; HEK 293T cells cotransfected with Flag- and Myc-tagged proteins; lysis and washes in RIPA buffer; IP with anti-Flag antibody, blot with anti-Myc antibody.

These are yes or no findings as the source states them, for the method shown. For some assays here: Binding seen in cells or lysates may run through a third protein. Some results given as binding are weak or reduced against the parent protein; the word gives no strength. For some assays here: Tags and fused reporters may be left off the sequences shown.

Five molecules from PMC2955581 can be followed below.

B1: endogenous collybistin (CB) of mouse brain (protein, UniProt Q3UTH8 1-516)
chain: MYDLITGDSIVSAEAVWDHVTMANRELAFKAGDVIKVLDASNKDWWWGQIDDEEGWFPASFVRLWVNQEDGVEEGPSDVQNGHLDPNSDCLCLGRPLQNRDQMRANVINEIMSTERHYIKHLKDICEGYLKQCRKRRDMFSDEQLKVIFGNIEDIYRFQMGFVRDLEKQYNNDDPHLSEIGPCFLEHQDGFWIYSEYCNNHLDACMELSKLMKDSRYQHFFEACRLLQQMIDIAIDGFLLTPVQKICKYPLQLAELLKYTAQDHSDYRYVAAALAVMRNVTQQINERKRRLENIDKIAQWQASVLDWEGEDILDRSSELIYTGEMAWIYQPYGRNQQRVFFLFDHQMVLCKKDLIRRDILYYKGRIDMDKYEVIDIEDGRDDDFNVSMKNAFKLHNKETEEVHLFFAKKLEEKIRWLRAFREERKMVQEDEKIGFEISENQKRQAAMTVRKASKQKGVNSARSVPPSYPPPQDPLNQGQYLVPDGIAQSQVFEFTEPKRSQSPFWQNFSRLTPFKK
As for B1, the results for the binding entry in assay [1] and in assay [2] were “binds weakly” and “binds”, respectively.

B2: Myc-CB (N-terminally Myc-tagged full-length human collybistin) (protein, UniProt O43307 1-516)
chain: MTLLITGDSIVSAEAVWDHVTMANRELAFKAGDVIKVLDASNKDWWWGQIDDEEGWFPASFVRLWVNQEDEVEEGPSDVQNGHLDPNSDCLCLGRPLQNRDQMRANVINEIMSTERHYIKHLKDICEGYLKQCRKRRDMFSDEQLKVIFGNIEDIYRFQMGFVRDLEKQYNNDDPHLSEIGPCFLEHQDGFWIYSEYCNNHLDACMELSKLMKDSRYQHFFEACRLLQQMIDIAIDGFLLTPVQKICKYPLQLAELLKYTAQDHSDYRYVAAALAVMRNVTQQINERKRRLENIDKIAQWQASVLDWEGEDILDRSSELIYTGEMAWIYQPYGRNQQRVFFLFDHQMVLCKKDLIRRDILYYKGRIDMDKYEVVDIEDGRDDDFNVSMKNAFKLHNKETEEIHLFFAKKLEEKIRWLRAFREERKMVQEDEKIGFEISENQKRQAAMTVRKVPKQKGVNSARSVPPSYPPPQDPLNHGQYLVPDGIAQSQVFEFTEPKRSQSPFWQNFSRLTPFKK
Regarding B2, in assay [3], the binding entry is reported as “binds”.

B3: GAL4AD-gephyrin (full-length human gephyrin fused to the GAL4 activation domain) (protein, UniProt Q9NQX3-2 1-769)
chain: MATEGMILTNHDHQIRVGVLTVSDSCFRNLAEDRSGINLKDLVQDPSLLGGTISAYKIVPDEIEEIKETLIDWCDEKELNLILTTGGTGFAPRDVTPEATKEVIEREAPGMALAMLMGSLNVTPLGMLSRPVCGIRGKTLIINLPGSKKGSQECFQFILPALPHAIDLLRDAIVKVKEVHDELEDLPSPPPPLSPPPTTSPHKQTEDKGVQCEEEEEEKKDSGVASTEDSSSSHITAAAIAAKKHPFYTSPAVVMAHGEQPIPGLINYSHHSTDERIPDSIISRGVQVLPRDTASLSTTPSESPRAQATSRLSTASCPTPKVQSRCSSKENILRASHSAVDITKVARRHRMSPFPLTSMDKAFITVLEMTPVLGTEIINYRDGMGRVLAQDVYAKDNLPPFPASVKDGYAVRAADGPGDRFIIGESQAGEQPTQTVMPGQVMRVTTGAPIPCGADAVVQVEDTELIRESDDGTEELEVRILVQARPGQDIRPIGHDIKRGECVLAKGTHMGPSEIGLLATVGVTEVEVNKFPVVAVMSTGNELLNPEDDLLPGKIRDSNRSTLLATIQEHGYPTINLGIVGDNPDDLLNALNEGISRADVIITSGGVSMGEKDYLKQVLDIDLHAQIHFGRVFMKPGLPTTFATLDIDGVRKIIFALPGNPVSAVVTCNLFVVPALRKMQGILDPRPTIIKARLSCDVKLDPRPEYHRCILTWHHQEPLPWAQSTGNQMSSRLMSMRSANGLLMLPPKTEQYVELHKGEVVDVMVIGRL
Consider B3, for which the binding entry in assay [4] and in assay [5] was “binds” each time.

B4: Myc-gephyrin (N-terminally Myc-tagged full-length human gephyrin) (protein, UniProt Q9NQX3-2 1-769)
chain: MATEGMILTNHDHQIRVGVLTVSDSCFRNLAEDRSGINLKDLVQDPSLLGGTISAYKIVPDEIEEIKETLIDWCDEKELNLILTTGGTGFAPRDVTPEATKEVIEREAPGMALAMLMGSLNVTPLGMLSRPVCGIRGKTLIINLPGSKKGSQECFQFILPALPHAIDLLRDAIVKVKEVHDELEDLPSPPPPLSPPPTTSPHKQTEDKGVQCEEEEEEKKDSGVASTEDSSSSHITAAAIAAKKHPFYTSPAVVMAHGEQPIPGLINYSHHSTDERIPDSIISRGVQVLPRDTASLSTTPSESPRAQATSRLSTASCPTPKVQSRCSSKENILRASHSAVDITKVARRHRMSPFPLTSMDKAFITVLEMTPVLGTEIINYRDGMGRVLAQDVYAKDNLPPFPASVKDGYAVRAADGPGDRFIIGESQAGEQPTQTVMPGQVMRVTTGAPIPCGADAVVQVEDTELIRESDDGTEELEVRILVQARPGQDIRPIGHDIKRGECVLAKGTHMGPSEIGLLATVGVTEVEVNKFPVVAVMSTGNELLNPEDDLLPGKIRDSNRSTLLATIQEHGYPTINLGIVGDNPDDLLNALNEGISRADVIITSGGVSMGEKDYLKQVLDIDLHAQIHFGRVFMKPGLPTTFATLDIDGVRKIIFALPGNPVSAVVTCNLFVVPALRKMQGILDPRPTIIKARLSCDVKLDPRPEYHRCILTWHHQEPLPWAQSTGNQMSSRLMSMRSANGLLMLPPKTEQYVELHKGEVVDVMVIGRL
As for B4, in assay [6], the binding entry is listed as “binds”.

B5: endogenous gephyrin of mouse brain (protein, UniProt Q8BUV3 1-769)
chain: MATEGMILTNHDHQIRVGVLTVSDSCFRNLAEDRSGINLKDLVQDPSLLGGTISAYKIVPDEIEEIKETLIDWCDEKELNLILTTGGTGFAPRDVTPEATKEVIEREAPGMALAMLMGSLNVTPLGMLSRPVCGIRGKTLIINLPGSKKGSQECFQFILPALPHAIDLLRDAIVKVKEVHDELEDLPSPPPPLSPPPTTSPHKQTEDKGVQCEEEEEEKKDSGVASTEDSSSSHITAAALAAKIPDSIISRGVQVLPRDTASLSTTPSESPRAQATSRLSTASCPTPKQIRRPDESKGVASRVGSLKARLPSCSSTYSVSEVQSRCSSKENILRASHSAVDITKVARRHRMSPFPLTSMDKAFITVLEMTPVLGTEIINYRDGMGRVLAQDVYAKDNLPPFPASVKDGYAVRAADGPGDRFIIGESQAGEQPTQTVMPGQVMRVTTGAPIPCGADAVVQVEDTELIRESDDGTEELEVRILVQARPGQDIRPIGHDIKRGECVLAKGTHMGPSEIGLLATVGVTEVEVNKFPVVAVMSTGNELLNPEDDLLPGKIRDSNRSTLLATIQEHGYPTINLGIVGDNPDDLLNALNEGISRADVIITSGGVSMGEKDYLKQVLDIDLHAQIHFGRVFMKPGLPTTFATLDIDGVRKIIFALPGNPVSAVVTCNLFVVPALRKMQGILDPRPTIIKARLSCDVKLDPRPEYHRCILTWHHQEPLPWAQSTGNQMSSRLMSMRSANGLLMLPPKTEQYVELHKGEVVDVMVIGRL
In the case of B5, the binding entry in assay [1] and in assay [2] was “binds” throughout.
